Assay results: the supplement of paper PMC10849652
The other results are listed elsewhere or left out.

Sequences of proteins named here, by UniProt entry; tags and fusion partners are left off. A change or cut given only in a name is not applied to a line headed by its entry.
UniProt Q96AA3: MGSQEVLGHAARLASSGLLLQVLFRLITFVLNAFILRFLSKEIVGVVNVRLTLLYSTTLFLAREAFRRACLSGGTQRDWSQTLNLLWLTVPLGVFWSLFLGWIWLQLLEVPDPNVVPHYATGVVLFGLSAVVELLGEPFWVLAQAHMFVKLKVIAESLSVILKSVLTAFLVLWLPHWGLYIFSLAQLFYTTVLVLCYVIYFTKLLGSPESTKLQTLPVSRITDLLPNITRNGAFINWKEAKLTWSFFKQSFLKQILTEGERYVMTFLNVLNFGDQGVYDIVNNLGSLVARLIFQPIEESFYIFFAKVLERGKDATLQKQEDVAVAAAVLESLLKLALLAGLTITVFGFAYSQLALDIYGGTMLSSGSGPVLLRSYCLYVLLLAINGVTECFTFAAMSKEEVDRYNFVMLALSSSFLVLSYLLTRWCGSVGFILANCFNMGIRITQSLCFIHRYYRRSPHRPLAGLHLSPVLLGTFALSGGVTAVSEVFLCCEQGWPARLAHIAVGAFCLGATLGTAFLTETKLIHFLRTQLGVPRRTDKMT
UniProt Q5T160: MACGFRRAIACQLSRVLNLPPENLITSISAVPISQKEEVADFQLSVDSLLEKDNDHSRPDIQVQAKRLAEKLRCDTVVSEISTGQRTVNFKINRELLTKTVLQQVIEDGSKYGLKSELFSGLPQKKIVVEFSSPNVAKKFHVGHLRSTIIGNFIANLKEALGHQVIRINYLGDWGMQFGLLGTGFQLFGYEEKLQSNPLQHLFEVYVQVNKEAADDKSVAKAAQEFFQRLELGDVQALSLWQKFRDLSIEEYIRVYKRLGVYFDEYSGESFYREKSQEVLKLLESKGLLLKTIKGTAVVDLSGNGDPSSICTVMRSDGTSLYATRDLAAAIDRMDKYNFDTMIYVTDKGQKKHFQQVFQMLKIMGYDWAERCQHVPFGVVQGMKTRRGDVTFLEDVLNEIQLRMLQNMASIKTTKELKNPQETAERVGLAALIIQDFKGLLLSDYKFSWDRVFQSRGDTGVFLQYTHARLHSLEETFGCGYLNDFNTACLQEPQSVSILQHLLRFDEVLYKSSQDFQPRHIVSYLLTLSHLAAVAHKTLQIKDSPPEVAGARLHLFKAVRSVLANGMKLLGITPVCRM
UniProt Q8WZ73: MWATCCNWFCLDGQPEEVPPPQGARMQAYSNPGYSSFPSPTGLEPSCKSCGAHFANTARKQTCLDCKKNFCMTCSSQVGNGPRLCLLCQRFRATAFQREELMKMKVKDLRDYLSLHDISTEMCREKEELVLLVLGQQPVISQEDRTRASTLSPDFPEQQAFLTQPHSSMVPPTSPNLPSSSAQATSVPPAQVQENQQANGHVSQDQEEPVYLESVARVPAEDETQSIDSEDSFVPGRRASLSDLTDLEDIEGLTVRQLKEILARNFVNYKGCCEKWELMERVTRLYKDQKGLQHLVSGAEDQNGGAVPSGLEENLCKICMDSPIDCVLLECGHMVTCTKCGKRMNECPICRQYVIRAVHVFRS
UniProt Q9Y3B8: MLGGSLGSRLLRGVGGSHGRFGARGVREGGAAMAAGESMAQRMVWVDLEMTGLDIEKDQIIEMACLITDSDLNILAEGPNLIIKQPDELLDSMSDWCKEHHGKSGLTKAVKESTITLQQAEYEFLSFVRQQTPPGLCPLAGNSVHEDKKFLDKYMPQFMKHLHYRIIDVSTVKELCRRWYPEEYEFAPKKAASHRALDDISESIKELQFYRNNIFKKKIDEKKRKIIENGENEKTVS
UniProt Q9UKL0, whole entry, looked up: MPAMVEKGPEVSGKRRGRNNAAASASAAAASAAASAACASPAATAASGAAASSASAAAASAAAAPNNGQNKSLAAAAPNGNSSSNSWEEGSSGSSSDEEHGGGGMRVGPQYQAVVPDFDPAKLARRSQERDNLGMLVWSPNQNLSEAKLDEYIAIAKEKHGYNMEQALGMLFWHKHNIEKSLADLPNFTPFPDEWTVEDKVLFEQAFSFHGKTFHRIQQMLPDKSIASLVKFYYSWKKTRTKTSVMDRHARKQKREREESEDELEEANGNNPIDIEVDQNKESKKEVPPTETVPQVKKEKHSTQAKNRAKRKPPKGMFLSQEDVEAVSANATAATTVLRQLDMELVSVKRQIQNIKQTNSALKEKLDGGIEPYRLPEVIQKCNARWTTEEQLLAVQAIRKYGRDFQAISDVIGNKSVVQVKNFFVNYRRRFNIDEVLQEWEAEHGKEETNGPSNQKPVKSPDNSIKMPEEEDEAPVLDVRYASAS
UniProt Q8IZV5: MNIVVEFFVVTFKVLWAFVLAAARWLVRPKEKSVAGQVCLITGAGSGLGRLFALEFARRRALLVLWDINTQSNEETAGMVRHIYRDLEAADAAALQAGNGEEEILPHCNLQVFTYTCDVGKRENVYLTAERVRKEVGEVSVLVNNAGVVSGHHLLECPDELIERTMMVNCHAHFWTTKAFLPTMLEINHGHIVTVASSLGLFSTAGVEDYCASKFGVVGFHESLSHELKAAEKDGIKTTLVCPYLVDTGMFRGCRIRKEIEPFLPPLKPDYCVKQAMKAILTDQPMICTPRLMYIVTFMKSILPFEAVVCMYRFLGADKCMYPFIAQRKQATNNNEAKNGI
UniProt P35249, whole entry, looked up: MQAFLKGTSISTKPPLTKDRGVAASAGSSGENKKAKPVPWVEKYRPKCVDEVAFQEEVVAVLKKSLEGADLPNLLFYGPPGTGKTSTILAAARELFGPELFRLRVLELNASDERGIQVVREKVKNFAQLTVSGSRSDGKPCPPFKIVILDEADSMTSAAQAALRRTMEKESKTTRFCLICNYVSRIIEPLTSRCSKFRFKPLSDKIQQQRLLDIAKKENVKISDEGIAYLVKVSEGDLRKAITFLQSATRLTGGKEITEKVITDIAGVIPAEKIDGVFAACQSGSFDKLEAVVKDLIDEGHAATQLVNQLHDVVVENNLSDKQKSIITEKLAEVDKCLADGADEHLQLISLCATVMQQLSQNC
UniProt P40937, whole entry, looked up: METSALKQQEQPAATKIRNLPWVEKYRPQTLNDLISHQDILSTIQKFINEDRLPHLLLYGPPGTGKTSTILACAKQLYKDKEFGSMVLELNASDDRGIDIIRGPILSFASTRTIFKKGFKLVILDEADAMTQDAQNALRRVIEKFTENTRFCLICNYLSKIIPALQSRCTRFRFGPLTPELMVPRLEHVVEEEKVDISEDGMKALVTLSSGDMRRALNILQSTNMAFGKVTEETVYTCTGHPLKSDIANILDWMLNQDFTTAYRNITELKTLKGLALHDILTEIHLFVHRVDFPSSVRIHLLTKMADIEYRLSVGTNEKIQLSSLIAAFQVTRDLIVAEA
UniProt P38159: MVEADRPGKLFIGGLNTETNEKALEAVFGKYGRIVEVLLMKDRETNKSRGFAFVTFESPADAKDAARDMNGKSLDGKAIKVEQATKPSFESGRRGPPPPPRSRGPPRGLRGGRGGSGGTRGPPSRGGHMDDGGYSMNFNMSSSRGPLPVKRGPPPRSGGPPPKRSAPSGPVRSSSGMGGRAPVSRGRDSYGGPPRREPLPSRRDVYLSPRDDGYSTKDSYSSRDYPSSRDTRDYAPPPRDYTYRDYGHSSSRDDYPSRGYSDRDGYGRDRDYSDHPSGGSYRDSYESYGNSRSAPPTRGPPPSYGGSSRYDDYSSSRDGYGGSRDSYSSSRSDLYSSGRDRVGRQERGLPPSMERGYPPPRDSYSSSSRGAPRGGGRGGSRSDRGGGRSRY
UniProt Q9BTD8: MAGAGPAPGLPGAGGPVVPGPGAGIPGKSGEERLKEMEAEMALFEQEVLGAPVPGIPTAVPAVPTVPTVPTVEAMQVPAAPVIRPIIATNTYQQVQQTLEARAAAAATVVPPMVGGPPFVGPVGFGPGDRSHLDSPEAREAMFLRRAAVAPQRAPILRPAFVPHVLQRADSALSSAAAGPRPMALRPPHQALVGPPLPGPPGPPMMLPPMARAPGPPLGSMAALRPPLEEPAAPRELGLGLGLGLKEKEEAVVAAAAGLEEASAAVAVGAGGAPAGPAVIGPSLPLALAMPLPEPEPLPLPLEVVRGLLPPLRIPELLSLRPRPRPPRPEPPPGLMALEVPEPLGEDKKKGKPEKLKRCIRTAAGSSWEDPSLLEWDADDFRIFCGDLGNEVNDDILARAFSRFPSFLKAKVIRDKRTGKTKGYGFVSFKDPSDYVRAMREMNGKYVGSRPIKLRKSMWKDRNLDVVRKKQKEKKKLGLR
UniProt Q9UBZ9: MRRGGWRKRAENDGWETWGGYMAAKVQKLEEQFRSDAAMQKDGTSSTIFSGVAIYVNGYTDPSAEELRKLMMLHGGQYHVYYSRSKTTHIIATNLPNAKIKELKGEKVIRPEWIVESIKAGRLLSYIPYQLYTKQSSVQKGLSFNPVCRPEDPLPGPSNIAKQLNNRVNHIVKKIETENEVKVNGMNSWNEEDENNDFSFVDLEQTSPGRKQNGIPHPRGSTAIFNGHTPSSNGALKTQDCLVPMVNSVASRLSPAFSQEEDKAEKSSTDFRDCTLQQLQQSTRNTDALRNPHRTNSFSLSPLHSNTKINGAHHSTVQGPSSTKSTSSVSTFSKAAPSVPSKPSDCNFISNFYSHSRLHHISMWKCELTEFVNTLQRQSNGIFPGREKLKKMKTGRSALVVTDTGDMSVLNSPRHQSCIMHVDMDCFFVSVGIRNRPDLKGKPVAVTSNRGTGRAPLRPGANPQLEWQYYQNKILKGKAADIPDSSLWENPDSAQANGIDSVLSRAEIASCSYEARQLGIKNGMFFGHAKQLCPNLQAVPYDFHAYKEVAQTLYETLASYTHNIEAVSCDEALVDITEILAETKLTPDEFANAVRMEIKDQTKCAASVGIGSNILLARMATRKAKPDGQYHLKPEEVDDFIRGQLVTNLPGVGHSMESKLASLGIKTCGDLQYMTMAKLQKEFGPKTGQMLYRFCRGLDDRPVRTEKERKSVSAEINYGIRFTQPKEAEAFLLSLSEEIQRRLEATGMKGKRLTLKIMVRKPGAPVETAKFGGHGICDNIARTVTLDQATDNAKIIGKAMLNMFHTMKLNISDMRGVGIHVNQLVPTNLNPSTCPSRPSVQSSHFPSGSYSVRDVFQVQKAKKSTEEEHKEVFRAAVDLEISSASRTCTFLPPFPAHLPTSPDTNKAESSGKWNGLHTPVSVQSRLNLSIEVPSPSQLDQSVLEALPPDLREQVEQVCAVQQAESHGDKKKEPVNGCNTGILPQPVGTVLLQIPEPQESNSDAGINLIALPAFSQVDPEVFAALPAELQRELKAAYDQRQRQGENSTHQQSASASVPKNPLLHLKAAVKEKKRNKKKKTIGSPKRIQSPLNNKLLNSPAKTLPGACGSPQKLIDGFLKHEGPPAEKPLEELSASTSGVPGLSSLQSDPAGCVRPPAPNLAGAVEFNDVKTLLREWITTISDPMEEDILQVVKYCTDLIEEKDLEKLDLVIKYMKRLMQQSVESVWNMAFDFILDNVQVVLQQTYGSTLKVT
UniProt Q06330: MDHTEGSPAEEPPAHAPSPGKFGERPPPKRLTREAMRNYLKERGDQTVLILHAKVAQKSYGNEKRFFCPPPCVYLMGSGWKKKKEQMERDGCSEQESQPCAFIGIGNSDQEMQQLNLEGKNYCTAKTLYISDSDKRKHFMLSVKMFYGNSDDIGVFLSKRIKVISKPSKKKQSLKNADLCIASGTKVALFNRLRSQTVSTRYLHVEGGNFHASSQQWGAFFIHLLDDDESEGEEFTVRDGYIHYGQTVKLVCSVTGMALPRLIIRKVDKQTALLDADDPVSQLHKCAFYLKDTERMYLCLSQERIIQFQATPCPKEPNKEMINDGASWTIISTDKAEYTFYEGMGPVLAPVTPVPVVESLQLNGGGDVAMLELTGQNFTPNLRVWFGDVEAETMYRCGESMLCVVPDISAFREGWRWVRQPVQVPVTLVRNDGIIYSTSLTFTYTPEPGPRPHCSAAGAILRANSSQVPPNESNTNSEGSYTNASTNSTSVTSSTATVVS

Experiments:
Assay in all cases: log2 fold change, soluble protein after heating vs DMSO (PISA); higher = thermal stabilisation; K562 lysate, 10 uM; active = over 0.2 and 3.5 SD of the protein, either way, in both replicates (recomputed)
erlotinib = compound: C#Cc1cccc(Nc2ncnc3cc(OCCOC)c(OCCOC)cc23)c1 [erlotinib]
Procedure, shortened: (§1)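 To prepare the extract, K562 pellets were dounce-homogenised in PBS pH 7.4 with 1 mM MgCl2, giving crude material at 1 mg/mL protein. This was treated with 10 μM compound for 30 min, then heated in aliquots for 3 min over 48°C-58°C before pooling and addition of NP-40 to 0.5% at 4°C. Centrifugation at 21,000xg for 90 min left soluble protein in the supernatant, which TMTpro 16plex LC-MS/MS quantified with equalised channel sums. Results are log-two fold changes in thermal stability compared with solvent controls, from duplicates.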

[1] = compound: C/C(=N\NC(=O)C1=CC(=CC=C1)S(=O)(=O)N2CCOCC2)/C3=C(C=CC(=C3)Cl)O
Procedure, shortened: as §1

[2] = compound: C1=CC(=CC=C1C2=NC3=C(N2)C=C(C=C3)C(=O)N)OC4=CC=C(C=C4)Cl
Procedure, shortened: as §1

[3] = compound: C1=CC2=C(C=CC(=C2)/C=C\3/C(=O)NC(=NCC4=CC=CS4)S3)N=C1
Procedure, shortened: as §1

[4] = compound: C1=CC2=NC=CN=C2C=C1/C=C/3\C(=O)NC(=O)S3
Procedure, shortened: as §1

[5] = compound: C1=CC=C(C=C1)C2=NC(=C(N2)C3=CC=NC=C3)C4=CC(=C(C=C4)Cl)O
Procedure, shortened: as §1

[6] = compound: C1=CC=C2C(=C1)C3=NNC4=CC=CC(=C43)C2=O
Procedure, shortened: as §1

[7] = compound: C1CCN(C1)C(=O)NC2=CC=CC(=C2)NC3=NC=C(C(=N3)NCCC4=CN=CN4)Br
Procedure, shortened: as §1

[8] = compound: C1CN(CCC1(CC2=CC=C(C=C2)Cl)N)C3=NC=NC4=C3C=CN4
Procedure, shortened: as §1

IRAK-1-4 Inhibitor I = compound: C1COCCN1CCN2C3=CC=CC=C3N=C2NC(=O)C4=CC(=CC=C4)[N+](=O)[O-] [IRAK-1-4 Inhibitor I]
Procedure, shortened: as §1

ibrutinib = compound: C=CC(=O)N1CCC[C@@H](n2nc(-c3ccc(Oc4ccccc4)cc3)c3c(N)ncnc32)C1 [ibrutinib]
Procedure, shortened: as §1

[9] = compound: CC(=O)c1cnc2ccc(-c3cc(Cl)c(O)c(Cl)c3)nc2c1N[C@H]1CC[C@H](CN(C)C)CC1
Procedure, shortened: as §1

ralimetinib = compound: CC(C)(C)Cn1c(N)nc2ccc(-c3[nH]c(C(C)(C)C)nc3-c3ccc(F)cc3)nc21 [ralimetinib]
Procedure, shortened: as §1

[10] = compound: CC(C)(O)CC(=O)NCCn1ccc2ncnc(Nc3ccc(Oc4cccc(C(F)(F)F)c4)c(Cl)c3)c21
Procedure, shortened: as §1

[11] = compound: CC(C)C1=C2N=C(C=C(N2N=C1)NCC3=CC=CC=C3)NCCCCCCN
Procedure, shortened: as §1

[12] = compound: CC1=C(C(CC(=O)N1)C2=CC=C(C=C2)C(F)(F)F)C(=O)NC3=C(C=C4C(=C3)C=NN4)F
Procedure, shortened: as §1

[13] = compound: CC1=C(C2=C(C=C1)C(=O)C3=CC=CC=C3N2CCCN)C
Procedure, shortened: as §1

[14] = compound: CC1=C(C=C(C=C1)NC(=O)C2=CC(=CC=C2)C(C)(C)C#N)NC3=CC4=C(C=C3)N=CN(C4=O)C
Procedure, shortened: as §1

[15] = compound: CC1=C(C=C(C=C1)NC(=O)C2=CC(=CC=C2)N(C)C)NC(=O)C3=CC=C(C=C3)O
Procedure, shortened: as §1

[16] = compound: CC1=CC=C(C=C1)SC2=C3C=C(SC3=CN=C2)C(=O)N
Procedure, shortened: as §1

Measured: log2 fold change

RFT1 (UniProt Q96AA3)
inactive: erlotinib -0.002 | [1] 0.096 | [2] 0.005 | [3] 0.108 | [4] 0.006 | [5] -0.018 | [6] -0.037 | [7] -0.047 | [8] 0.069 | IRAK-1-4 Inhibitor I 0.001 | ibrutinib 0.027 | [9] -0.038 | ralimetinib 0.053 | [10] -0.014 | [11] -0.036 | [12] 0.02 | [13] -0.02 | [14] 0.025 | [15] -0.013 | [16] -0.07

RARS2 (UniProt Q5T160)
inactive: erlotinib 0.058 | [1] 0.03 | [2] 0.107 | [3] 0.027 | [4] -0.032 | [5] -0.088 | [6] -0.1 | [7] 0.032 | [8] -0.053 | IRAK-1-4 Inhibitor I 0.035 | ibrutinib 0.02 | [9] 0.009 | ralimetinib 0.001 | [10] -0.019 | [11] 0.061 | [12] -0.026 | [13] -0.042 | [14] 0.005 | [15] -0.032 | [16] -0.009

RFFL (UniProt Q8WZ73)
inactive: erlotinib 0.065 | [1] 0.138 | [2] -0.068 | [3] -0.029 | [4] 0.029 | [5] 0.008 | [6] 0 | [7] -0.073 | [8] -0.031 | IRAK-1-4 Inhibitor I -0.121 | ibrutinib -0.249 | [9] 0.18 | ralimetinib -0.111 | [10] -0.041 | [11] -0.027 | [12] -0.083 | [13] -0.07 | [14] -0.015 | [15] 0.041 | [16] -0.002

REXO2 (UniProt Q9Y3B8)
inactive: erlotinib -0.005 | [1] 0.007 | [2] -0.026 | [3] -0.025 | [4] -0.005 | [5] 0.017 | [6] 0.03 | [7] 0.024 | [8] 0.001 | IRAK-1-4 Inhibitor I -0.005 | ibrutinib 0.05 | [9] 0.019 | ralimetinib -0.022 | [10] 0.014 | [11] 0.001 | [12] -0.006 | [13] 0.024 | [14] -0.018 | [15] -0.021 | [16] 0.008

RCOR1 (UniProt Q9UKL0)
inactive: erlotinib -0.023 | [1] 0.065 | [2] -0.004 | [3] -0.053 | [4] -0.051 | [5] 0.005 | [6] -0.035 | [7] -0.008 | [8] 0.017 | IRAK-1-4 Inhibitor I 0.003 | ibrutinib 0.016 | [9] -0.001 | ralimetinib 0.023 | [10] -0.028 | [11] 0.264 | [12] 0 | [13] 0.013 | [14] -0.049 | [15] 0.02 | [16] 0.021

RBM19 (UniProt Q9Y4C8)
inactive: erlotinib -0.042 | [1] 0.005 | [2] 0.02 | [3] 0.011 | [4] 0.036 | [5] 0.003 | [6] -0.039 | [7] -0.003 | [8] -0.027 | IRAK-1-4 Inhibitor I -0.03 | ibrutinib -0.126 | [9] 0.064 | ralimetinib 0.107 | [10] 0.031 | [11] -0.059 | [12] 0.042 | [13] -0.015 | [14] -0.215 | [15] 0.033 | [16] -0.004

RDH10 (UniProt Q8IZV5)
inactive: erlotinib 0.043 | [1] 0.001 | [2] -0.019 | [3] 0.087 | [4] -0.028 | [5] -0.022 | [6] -0.013 | [7] 0.024 | [8] -0.023 | IRAK-1-4 Inhibitor I 0.001 | ibrutinib 0.016 | [9] -0.015 | ralimetinib 0.04 | [10] -0.013 | [11] 0.03 | [12] -0.007 | [13] -0.033 | [14] -0.045 | [15] -0.034 | [16] -0.016

RFC4 (UniProt P35249)
inactive: erlotinib 0.006 | [1] 0.027 | [2] -0.033 | [3] -0.027 | [4] 0.018 | [5] 0.007 | [6] -0.056 | [7] -0.022 | [8] -0.012 | IRAK-1-4 Inhibitor I -0.018 | ibrutinib -0.01 | [9] -0.008 | ralimetinib -0.01 | [10] -0.015 | [11] 0.032 | [12] 0 | [13] 0.026 | [14] -0.001 | [15] 0.002 | [16] 0.019

RFC5 (UniProt P40937)
inactive: erlotinib 0.02 | [1] 0.024 | [2] -0.025 | [3] 0.036 | [4] -0.012 | [5] 0.029 | [6] -0.074 | [7] 0.004 | [8] 0.023 | IRAK-1-4 Inhibitor I 0.019 | ibrutinib -0.038 | [9] -0.001 | ralimetinib 0.046 | [10] 0.02 | [11] 0.012 | [12] -0.002 | [13] -0.009 | [14] 0.014 | [15] 0.025 | [16] 0.018

RBMX (UniProt P38159)
inactive: erlotinib 0 | [1] 0.019 | [2] -0.056 | [3] 0.016 | [4] 0.013 | [5] 0.025 | [6] 0.018 | [7] 0.06 | [8] 0.029 | IRAK-1-4 Inhibitor I -0.012 | ibrutinib -0.034 | [9] -0.132 | ralimetinib 0.004 | [10] 0.032 | [11] -0.029 | [12] -0.017 | [13] 0.035 | [14] -0.016 | [15] -0.016 | [16] -0.006

RBM42 (UniProt Q9BTD8)
inactive: erlotinib -0.034 | [1] -0.161 | [2] 0.073 | [3] -0.062 | [4] -0.018 | [5] -0.009 | [6] -0.05 | [7] -0.017 | [8] -0.014 | IRAK-1-4 Inhibitor I 0.049 | ibrutinib 0.071 | [9] 0.02 | ralimetinib -0.011 | [10] -0.007 | [11] 0.081 | [12] 0.025 | [13] 0.04 | [14] -0.028 | [15] -0.005 | [16] 0.069

RBM26 isoform 3 (UniProt Q5T8P6)
inactive: erlotinib -0.051 | [1] -0.171 | [2] 0.021 | [3] -0.052 | [4] -0.104 | [5] 0.045 | [6] -0.004 | [7] 0.049 | [8] -0.059 | IRAK-1-4 Inhibitor I -0.003 | ibrutinib 0.073 | [9] 0.034 | ralimetinib 0.177 | [10] 0.047 | [11] 0.083 | [12] -0.01 | [13] 0.074 | [14] 0.028 | [15] -0.011 | [16] 0.011

RBM8A (UniProt Q9Y5S9)
inactive: erlotinib -0.061 | [1] 0.035 | [2] -0.002 | [3] 0.069 | [4] -0.042 | [5] 0.029 | [6] 0.093 | [7] 0.086 | [8] -0.076 | IRAK-1-4 Inhibitor I -0.059 | ibrutinib -0.001 | [9] -0.016 | ralimetinib -0.011 | [10] 0.057 | [11] -0.038 | [12] -0.004 | [13] 0.066 | [14] -0.101 | [15] 0.035 | [16] 0.027

Quoted at random: two entries already listed
RBM19 (UniProt Q9Y4C8)
inactive: erlotinib -0.042 | [1] 0.005 | [2] 0.02 | [3] 0.011 | [4] 0.036 | [5] 0.003 | [6] -0.039 | [7] -0.003 | [8] -0.027 | IRAK-1-4 Inhibitor I -0.03 | ibrutinib -0.126 | [9] 0.064 | ralimetinib 0.107 | [10] 0.031 | [11] -0.059 | [12] 0.042 | [13] -0.015 | [14] -0.215 | [15] 0.033 | [16] -0.004

RBMX (UniProt P38159)
inactive: erlotinib 0 | [1] 0.019 | [2] -0.056 | [3] 0.016 | [4] 0.013 | [5] 0.025 | [6] 0.018 | [7] 0.06 | [8] 0.029 | IRAK-1-4 Inhibitor I -0.012 | ibrutinib -0.034 | [9] -0.132 | ralimetinib 0.004 | [10] 0.032 | [11] -0.029 | [12] -0.017 | [13] 0.035 | [14] -0.016 | [15] -0.016 | [16] -0.006

The listing continues.

RCOR3 isoform 3 (UniProt Q9P2K3)
inactive: erlotinib -0.033 | [1] 0.025 | [2] 0.022 | [3] 0.009 | [4] -0.006 | [5] -0.017 | [6] -0.012 | [7] -0.02 | [8] -0.015 | IRAK-1-4 Inhibitor I -0.015 | ibrutinib -0.009 | [9] -0.03 | ralimetinib 0.014 | [10] -0.004 | [11] 0.011 | [12] 0 | [13] 0.002 | [14] -0.038 | [15] 0.002 | [16] -0.011

REV1 (UniProt Q9UBZ9)
inactive: erlotinib -0.08 | [1] 0.008 | [2] -0.087 | [3] 0.011 | [4] -0.007 | [5] -0.02 | [6] 0.07 | [7] 0.021 | [8] -0.094 | IRAK-1-4 Inhibitor I -0.075 | ibrutinib 0.013 | [9] 0.035 | ralimetinib 0.074 | [10] 0.081 | [11] 0.012 | [12] 0.021 | [13] 0.078 | [14] -0.067 | [15] -0.001 | [16] -0.001

RBPJ (UniProt Q06330)
inactive: erlotinib -0.009 | [1] -0.126 | [2] -0.005 | [3] 0.067 | [4] -0.016 | [5] -0.044 | [6] -0.027 | [7] -0.018 | [8] -0.032 | IRAK-1-4 Inhibitor I 0.022 | ibrutinib 0.025 | [9] 0.042 | ralimetinib 0.006 | [10] -0.02 | [11] 0.022 | [12] 0 | [13] -0.026 | [14] 0.013 | [15] -0.022 | [16] -0.002
